Paper PMC10978872
These are yes or no findings as the source states them, for the method shown. A result given as binding can be weak or reduced; the word gives no strength. For some of these results: Binding seen in cells or lysates may run through a third protein. For some of these results: Tags and fused reporters may be left off the sequences shown.

Protein sequences, listed by entry. Tags and fused reporters are not part of them. Lines headed by an entry give the natural chain unless they say otherwise; changes in a name come on top.
UniProt P18334: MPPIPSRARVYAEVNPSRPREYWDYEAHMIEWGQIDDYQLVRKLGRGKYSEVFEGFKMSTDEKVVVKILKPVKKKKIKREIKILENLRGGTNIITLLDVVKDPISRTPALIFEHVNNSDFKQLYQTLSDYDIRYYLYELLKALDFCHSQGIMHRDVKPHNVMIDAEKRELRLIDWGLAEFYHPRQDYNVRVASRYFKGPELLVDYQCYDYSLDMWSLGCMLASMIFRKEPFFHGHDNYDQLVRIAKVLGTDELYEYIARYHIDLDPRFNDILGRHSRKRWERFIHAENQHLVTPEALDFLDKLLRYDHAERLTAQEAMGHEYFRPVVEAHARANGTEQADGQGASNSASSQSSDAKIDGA
UniProt O01819: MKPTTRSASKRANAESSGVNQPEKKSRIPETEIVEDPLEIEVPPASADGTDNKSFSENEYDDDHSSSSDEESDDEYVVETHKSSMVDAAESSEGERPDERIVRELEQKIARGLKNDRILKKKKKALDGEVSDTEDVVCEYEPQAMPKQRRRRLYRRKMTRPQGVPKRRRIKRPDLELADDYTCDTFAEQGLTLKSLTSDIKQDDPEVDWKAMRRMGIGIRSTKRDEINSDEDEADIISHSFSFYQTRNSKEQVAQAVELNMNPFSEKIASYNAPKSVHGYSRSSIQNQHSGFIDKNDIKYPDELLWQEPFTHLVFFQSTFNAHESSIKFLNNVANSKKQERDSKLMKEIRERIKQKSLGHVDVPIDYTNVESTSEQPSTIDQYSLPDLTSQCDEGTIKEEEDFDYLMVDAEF

How the values were obtained:
[1] = molecular target: T1, FLAG::PRDE-1 (C. elegans) (UniProt O17828); assay: co-IP; extracts of synchronous adult worms incubated with anti-FLAG beads for 2 h at 4 °C; FLAG::PRDE-1 precipitated, GFP::TOFU-4 detected by western blot
T1 sequence: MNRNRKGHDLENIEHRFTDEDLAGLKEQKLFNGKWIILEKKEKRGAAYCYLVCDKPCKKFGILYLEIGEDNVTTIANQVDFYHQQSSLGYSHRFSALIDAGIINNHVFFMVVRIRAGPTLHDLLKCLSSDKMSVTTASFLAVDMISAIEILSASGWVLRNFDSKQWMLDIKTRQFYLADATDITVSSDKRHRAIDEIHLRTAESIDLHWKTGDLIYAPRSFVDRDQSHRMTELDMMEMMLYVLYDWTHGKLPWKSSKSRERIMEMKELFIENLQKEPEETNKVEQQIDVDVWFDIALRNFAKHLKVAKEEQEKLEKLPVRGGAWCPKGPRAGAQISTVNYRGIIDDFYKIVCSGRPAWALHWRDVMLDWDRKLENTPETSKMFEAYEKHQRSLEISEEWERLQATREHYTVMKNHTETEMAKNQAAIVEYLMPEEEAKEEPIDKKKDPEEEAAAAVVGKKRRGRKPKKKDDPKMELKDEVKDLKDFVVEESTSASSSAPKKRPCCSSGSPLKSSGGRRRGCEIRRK

GST-KIN-3 (C. elegans) = GST-KIN-3 (C. elegans) (UniProt P18334); assay: pull-down; GST fusion proteins incubated with His-tagged proteins and glutathione beads; bound proteins detected by western blot with anti-His antibody; both purified

Row | binding [1] | binding (GST-KIN-3 (C. elegans)) | Substance
1 | no binding | – | GFP::TOFU-4(S131A S229A) (C. elegans)
2 | – | binds | His-TOFU-4 (from UniProt O01819)
3 | binds | – | GFP::TOFU-4(S131D S229D) (C. elegans)
4 | binds | – | GFP::TOFU-4 (wild type) (from UniProt O01819)
